For this assay, the target named is HA-tagged p113 (human). In words: co-IP; two-step (secondary) immunoprecipitation from SH-SY5Y cells stably transfected with HA-tagged p113, Flag-tagged ZRF1 and His-tagged BRD4.

These are yes or no findings as the source states them, for the method shown. In cells and extracts the contact can be indirect. Binding calls can cover weak binding; strength is not graded here. Where a sequence is shown, tags or fusion partners need not be part of it.

B1: Flag-tagged ZRF1 (protein, UniProt Q99543 1-621)
chain: MLLLPSAADGRGTAITHALTSASTLCQVEPVGRWFEAFVKRRNRNASASFQELEDKKELSEESEDEELQLEEFPMLKTLDPKDWKNQDHYAVLGLGHVRYKATQRQIKAAHKAMVLKHHPDKRKAAGEPIKEGDNDYFTCITKAYEMLSDPVKRRAFNSVDPTFDNSVPSKSEAKDNFFEVFTPVFERNSRWSNKKNVPKLGDMNSSFEDVDIFYSFWYNFDSWREFSYLDEEEKEKAECRDERRWIEKQNRATRAQRKKEEMNRIRTLVDNAYSCDPRIKKFKEEEKAKKEAEKKAKAEAKRKEQEAKEKQRQAELEAARLAKEKEEEEVRQQALLAKKEKDIQKKAIKKERQKLRNSCKTWNHFSDNEAERVKMMEEVEKLCDRLELASLQCLNETLTSCTKEVGKAALEKQIEEINEQIRKEKEEAEARMRQASKNTEKSTGGGGNGSKNWSEDDLQLLIKAVNLFPAGTNSRWEVIANYMNIHSSSGVKRTAKDVIGKAKSLQKLDPHQKDDINKKAFDKFKKEHGVVPQADNATPSERFEGPYTDFTPWTTEEQKLLEQALKTYPVNTPERWEKIAEAVPGRTKKDCMKRYKELVEMVKAKKAAQEQVLNASRAKK
With B1, the binding result is “binds”.
